Results are given in words; binding and its absence hold for the method and conditions named. In cells and extracts the contact can be indirect. These calls come from enrichment with a bait or labelling near it, and not all partners need be listed.
Biological target: FBW7 (endogenous, HEK293; precipitated or detected with an FBW7α-specific antibody) (human (endogenous in HEK293)) (UniProt Q969H0)
Assay: affinity purification with mass spectrometry; endogenous FBW7α immunoprecipitated (5 μg/ml FBW7α antibody; rabbit IgG control) from HEK293 cells treated with MG132 for 6 hours, lysed in 1x Cell Lysis Buffer; complexes washed 5 times; eluates analysed by MS

Chains of the proteins cited; added tags and fusions are not shown.
UniProt Q969H0: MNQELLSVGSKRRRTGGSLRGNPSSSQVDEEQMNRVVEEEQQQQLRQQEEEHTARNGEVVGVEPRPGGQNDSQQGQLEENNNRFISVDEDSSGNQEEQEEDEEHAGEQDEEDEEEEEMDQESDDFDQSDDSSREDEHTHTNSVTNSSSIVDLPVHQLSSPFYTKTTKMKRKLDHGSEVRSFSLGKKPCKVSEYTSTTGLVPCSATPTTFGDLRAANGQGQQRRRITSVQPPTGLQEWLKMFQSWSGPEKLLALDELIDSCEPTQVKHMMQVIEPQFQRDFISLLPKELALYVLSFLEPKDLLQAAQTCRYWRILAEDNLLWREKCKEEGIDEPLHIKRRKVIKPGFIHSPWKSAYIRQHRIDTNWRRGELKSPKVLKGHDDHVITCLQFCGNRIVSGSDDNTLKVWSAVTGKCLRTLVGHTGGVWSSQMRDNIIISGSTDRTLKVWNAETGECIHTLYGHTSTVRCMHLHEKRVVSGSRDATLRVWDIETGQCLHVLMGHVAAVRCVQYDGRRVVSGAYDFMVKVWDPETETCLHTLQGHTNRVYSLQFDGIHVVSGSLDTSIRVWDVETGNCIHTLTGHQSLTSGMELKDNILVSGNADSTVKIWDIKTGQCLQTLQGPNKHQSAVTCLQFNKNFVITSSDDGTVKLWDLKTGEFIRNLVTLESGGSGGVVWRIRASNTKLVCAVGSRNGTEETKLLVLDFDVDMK
UniProt Q93008: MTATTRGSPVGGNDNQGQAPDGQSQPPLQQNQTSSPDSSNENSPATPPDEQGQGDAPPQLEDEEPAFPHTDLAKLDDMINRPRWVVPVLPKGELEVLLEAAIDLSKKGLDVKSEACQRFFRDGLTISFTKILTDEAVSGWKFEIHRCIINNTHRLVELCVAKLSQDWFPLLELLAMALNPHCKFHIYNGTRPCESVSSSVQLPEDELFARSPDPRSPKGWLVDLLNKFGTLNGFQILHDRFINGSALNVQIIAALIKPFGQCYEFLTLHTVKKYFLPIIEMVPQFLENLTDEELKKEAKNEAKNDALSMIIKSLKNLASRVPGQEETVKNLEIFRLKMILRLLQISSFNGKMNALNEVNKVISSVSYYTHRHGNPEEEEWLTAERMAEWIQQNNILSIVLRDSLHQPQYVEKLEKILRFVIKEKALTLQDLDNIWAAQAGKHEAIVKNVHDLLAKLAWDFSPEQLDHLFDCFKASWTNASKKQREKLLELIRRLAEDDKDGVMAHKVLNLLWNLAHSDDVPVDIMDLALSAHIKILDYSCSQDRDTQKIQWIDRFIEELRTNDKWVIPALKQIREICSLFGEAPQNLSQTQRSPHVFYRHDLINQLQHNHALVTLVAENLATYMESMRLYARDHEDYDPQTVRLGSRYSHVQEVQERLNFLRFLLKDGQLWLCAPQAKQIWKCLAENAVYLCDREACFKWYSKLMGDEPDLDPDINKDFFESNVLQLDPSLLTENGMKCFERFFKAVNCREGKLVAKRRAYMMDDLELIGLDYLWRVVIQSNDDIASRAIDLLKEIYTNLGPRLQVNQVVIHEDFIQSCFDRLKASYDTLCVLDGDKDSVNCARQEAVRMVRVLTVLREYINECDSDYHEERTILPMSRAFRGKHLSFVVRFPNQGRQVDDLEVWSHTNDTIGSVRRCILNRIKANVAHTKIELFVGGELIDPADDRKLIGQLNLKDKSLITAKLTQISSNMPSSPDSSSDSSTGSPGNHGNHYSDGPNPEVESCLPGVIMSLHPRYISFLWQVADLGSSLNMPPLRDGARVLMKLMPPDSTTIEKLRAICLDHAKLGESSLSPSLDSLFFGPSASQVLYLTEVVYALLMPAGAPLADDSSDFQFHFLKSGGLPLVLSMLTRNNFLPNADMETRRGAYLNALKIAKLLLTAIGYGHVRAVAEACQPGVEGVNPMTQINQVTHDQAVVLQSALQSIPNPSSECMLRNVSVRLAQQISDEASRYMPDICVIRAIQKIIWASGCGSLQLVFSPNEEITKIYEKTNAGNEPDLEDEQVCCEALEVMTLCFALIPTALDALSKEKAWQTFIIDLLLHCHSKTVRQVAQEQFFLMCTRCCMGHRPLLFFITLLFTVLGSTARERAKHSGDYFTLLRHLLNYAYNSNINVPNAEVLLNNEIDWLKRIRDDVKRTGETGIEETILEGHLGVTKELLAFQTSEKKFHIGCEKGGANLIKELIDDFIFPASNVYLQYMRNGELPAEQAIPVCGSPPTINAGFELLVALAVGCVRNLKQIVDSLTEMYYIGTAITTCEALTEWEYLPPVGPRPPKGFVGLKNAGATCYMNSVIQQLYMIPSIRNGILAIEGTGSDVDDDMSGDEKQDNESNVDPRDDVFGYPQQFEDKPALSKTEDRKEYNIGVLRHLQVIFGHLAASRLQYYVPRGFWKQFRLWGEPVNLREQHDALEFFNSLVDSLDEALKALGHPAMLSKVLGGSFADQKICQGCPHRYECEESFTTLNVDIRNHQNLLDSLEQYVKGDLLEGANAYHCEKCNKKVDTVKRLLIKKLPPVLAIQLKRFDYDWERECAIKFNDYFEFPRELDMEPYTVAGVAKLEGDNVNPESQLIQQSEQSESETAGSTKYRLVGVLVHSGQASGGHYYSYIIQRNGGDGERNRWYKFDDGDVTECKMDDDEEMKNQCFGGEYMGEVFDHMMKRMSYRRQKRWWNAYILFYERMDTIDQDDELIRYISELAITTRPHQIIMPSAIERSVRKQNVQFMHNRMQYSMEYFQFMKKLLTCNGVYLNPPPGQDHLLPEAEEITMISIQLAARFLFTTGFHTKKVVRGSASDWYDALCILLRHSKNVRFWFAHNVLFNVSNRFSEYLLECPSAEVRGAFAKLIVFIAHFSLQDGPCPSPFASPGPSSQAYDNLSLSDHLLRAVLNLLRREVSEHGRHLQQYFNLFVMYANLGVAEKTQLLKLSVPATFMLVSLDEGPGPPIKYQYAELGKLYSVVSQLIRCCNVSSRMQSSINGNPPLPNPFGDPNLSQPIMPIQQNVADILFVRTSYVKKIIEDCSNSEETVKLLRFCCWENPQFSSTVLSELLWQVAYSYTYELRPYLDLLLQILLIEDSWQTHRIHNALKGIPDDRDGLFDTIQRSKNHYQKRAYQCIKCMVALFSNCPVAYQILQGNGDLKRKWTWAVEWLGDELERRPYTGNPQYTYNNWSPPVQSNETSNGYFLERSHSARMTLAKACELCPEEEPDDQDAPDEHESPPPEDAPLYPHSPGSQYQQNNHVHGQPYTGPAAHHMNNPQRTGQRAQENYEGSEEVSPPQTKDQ
UniProt P05412: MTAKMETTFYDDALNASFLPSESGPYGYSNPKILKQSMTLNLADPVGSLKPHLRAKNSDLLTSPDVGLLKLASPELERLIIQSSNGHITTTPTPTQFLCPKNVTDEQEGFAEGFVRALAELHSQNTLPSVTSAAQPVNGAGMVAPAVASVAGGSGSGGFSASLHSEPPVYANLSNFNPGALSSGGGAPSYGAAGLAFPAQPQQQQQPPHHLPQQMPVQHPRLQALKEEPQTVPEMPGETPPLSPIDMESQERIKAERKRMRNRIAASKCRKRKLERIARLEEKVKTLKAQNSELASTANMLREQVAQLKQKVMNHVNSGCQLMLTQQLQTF

| Substance | binding |
| --- | --- |
| USP9X (endogenous, HEK293) (from UniProt Q93008 1-2554) (enzyme) | binds |
| c-JUN (endogenous, HEK293) (from UniProt P05412 1-331) | binds |

Source: article PMC5873885
